Measurements as given in paper PMC8011081, “Bio-guided isolation of anti-leishmanial natural products from Diospyros gracilescens L. (Ebenaceae)” (BMC Complementary Medicine and Therapies, 2021).

Key:
[1] = system: L. donovani amastigotes; experiment: Inhibitory assay against intracellular L. donovani amastigotes in Raw 264.7 macrophages (resazurin); assay type: cell-based, Leishmania donovani; conditions: CC50/IC50; isolated compounds
Protocol: The effect of plant isolates against the intracellular amastigote form of L. donovani was evaluated essentially as described by Jain et al. with some modifications. Briefly, macrophage Raw 264.7 cells ([…]) were seeded in 96 well plates and incubated for 6 h at 37 °C under 5% CO2 for adhesion of the cells. Afterwards, the non-adherent cells were washed-out with sterile PBS. The adherent Raw 264.7 cells were infected with metacyclic promastigotes (4 × 10^5 cells) at an infection ratio of 1:10 macrophage: parasites and incubated for 24 h at 37 °C under 5% CO2 in order to allow infection of macrophages by metacyclic promastigotes. Thereafter, the overlying medium was removed, and the monolayer cells with internalized amastigotes were carefully washed four times with PBS to remove free parasites. […] Resazurin reagent (250 μg/mL) was thereafter added in each well and the plates were incubated for 24 h followed by fluorescence recording at λexcitation = 530 nm and λemission = 590 nm using a Tecan Infinite M200 microplate reader (Tecan). Inhibition percentages were calculated using Microsoft Excel Software and median inhibitory concentration (IC50) obtained from dose-response curves using GraphPad Prism 5.0. […]

[2] = system: L. donovani promastigotes (MHOM/SD/62/1S); experiment: Inhibitory assay against L. donovani promastigotes (resazurin colorimetric assay); assay type: cell-based, Leishmania donovani; conditions: CC50/IC50; isolated compounds
Protocol: The cryopreserved promastigote form of L. donovani (1S (MHOM/SD/62/1S) was obtained from Bei Resources (https://www.beiresources.org/) and is routinely cultured at the Antimicrobial and Biocontrol Agents Unit, University of Yaoundé I, in Medium 199 (Sigma, Darmstadt, Germany) supplemented with 10% Heat-Inactivated fetal Bovine Serum (HIFBS) (Sigma, Darmstadt, Germany) and 100 IU/mL penicillin and 100 μg/mL streptomycin. The culture was maintained in 75 Cm^2 cell culture flask at 28 °C and checked for growth daily and sub-cultured everyday 72 h.
The stock solutions were prepared by dissolving each sample in 100% dimethyl sulfoxide (DMSO) and subsequently diluted serially in non-supplemented culture medium. […] The viability rate of promastigotes positively correlated with the amount of pink resorufin that was produced through the reduction of blue resazurin by the dehydrogenase enzymes in the inner mitochondrial membrane of the living parasites. […] After an additional incubation for 44 h, plates were then read on a Magelan Infinite M200 fluorescence multi-well plate reader (Tecan, Männedorf, Switzerland) at an excitation and emission wave lengths of 530 and 590 nm respectively.

## OC1CC(O)C(O)C(O)C1O (centres unmarked) [1-deoxyinositol (7), 1-deoxyinositol]
[1]
  SI (Amastigotes): > 10.15
[2]
  SI (Promastigotes): > 5.04
